# Laboratory results reported in article PMC9417990.
# Amino acid sequences for entries named in this document (tags omitted).
# UniProt Q460N5: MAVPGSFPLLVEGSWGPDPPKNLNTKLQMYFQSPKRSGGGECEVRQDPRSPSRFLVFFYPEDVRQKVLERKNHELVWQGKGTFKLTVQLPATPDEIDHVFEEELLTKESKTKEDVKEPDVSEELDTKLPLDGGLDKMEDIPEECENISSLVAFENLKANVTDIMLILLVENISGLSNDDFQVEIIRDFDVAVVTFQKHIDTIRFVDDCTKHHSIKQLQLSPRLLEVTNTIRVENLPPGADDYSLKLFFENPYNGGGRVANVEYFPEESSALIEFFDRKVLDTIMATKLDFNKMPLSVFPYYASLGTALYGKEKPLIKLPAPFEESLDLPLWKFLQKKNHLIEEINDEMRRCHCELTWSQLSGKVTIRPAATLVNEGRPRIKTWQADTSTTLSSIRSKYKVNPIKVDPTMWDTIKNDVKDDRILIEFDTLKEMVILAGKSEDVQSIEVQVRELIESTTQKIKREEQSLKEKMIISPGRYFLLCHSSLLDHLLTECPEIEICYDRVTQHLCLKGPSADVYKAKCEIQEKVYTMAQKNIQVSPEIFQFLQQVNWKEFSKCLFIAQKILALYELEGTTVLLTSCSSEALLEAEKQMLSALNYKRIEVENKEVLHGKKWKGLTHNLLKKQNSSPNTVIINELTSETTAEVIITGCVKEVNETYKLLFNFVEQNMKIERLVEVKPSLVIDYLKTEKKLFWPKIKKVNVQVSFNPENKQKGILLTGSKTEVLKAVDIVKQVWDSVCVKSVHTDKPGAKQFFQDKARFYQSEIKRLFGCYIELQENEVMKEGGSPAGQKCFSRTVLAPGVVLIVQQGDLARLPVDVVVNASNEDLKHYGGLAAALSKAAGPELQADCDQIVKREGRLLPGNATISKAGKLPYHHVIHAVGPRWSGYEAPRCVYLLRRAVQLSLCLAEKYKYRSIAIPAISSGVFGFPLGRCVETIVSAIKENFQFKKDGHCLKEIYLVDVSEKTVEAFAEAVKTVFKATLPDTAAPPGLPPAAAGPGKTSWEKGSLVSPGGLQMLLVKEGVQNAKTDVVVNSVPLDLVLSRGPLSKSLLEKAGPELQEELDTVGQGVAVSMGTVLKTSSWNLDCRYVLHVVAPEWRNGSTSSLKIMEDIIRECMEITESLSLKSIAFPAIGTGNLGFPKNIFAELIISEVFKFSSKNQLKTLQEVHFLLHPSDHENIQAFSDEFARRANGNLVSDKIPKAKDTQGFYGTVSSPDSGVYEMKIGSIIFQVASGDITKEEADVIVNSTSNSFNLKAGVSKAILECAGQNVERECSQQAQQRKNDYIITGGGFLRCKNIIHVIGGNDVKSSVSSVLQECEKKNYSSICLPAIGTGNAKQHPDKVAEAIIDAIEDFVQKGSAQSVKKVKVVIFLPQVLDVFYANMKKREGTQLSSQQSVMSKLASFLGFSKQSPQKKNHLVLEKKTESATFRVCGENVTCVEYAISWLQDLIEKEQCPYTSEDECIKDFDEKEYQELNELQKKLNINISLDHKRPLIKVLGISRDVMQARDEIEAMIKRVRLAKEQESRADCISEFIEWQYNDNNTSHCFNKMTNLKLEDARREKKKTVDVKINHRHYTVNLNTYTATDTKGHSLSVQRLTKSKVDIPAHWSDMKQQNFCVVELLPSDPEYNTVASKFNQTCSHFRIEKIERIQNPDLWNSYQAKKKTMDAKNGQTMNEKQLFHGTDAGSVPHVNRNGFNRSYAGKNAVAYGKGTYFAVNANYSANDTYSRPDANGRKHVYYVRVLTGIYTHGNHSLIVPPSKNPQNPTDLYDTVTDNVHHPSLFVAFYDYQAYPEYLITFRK
# Substitutions are numbered along the chain they refer to. No constants are given. Whether binding was seen depends on the method and setting. In cells and extracts the contact can be indirect. Some results given as binding are weak or reduced against the parent protein; the word gives no strength. Where a sequence is shown, tags or fusion partners need not be part of it.
# What was measured:
# [1] = target: T1, Flag-tagged mutant STAT6 D419G (human) (UniProt P42226); assay: proximity ligation; 2 µm cytoblock sections of OCI-Ly8 cells (STAT6^WT vs STAT6^MUT, with or without IL-4 10 ng/ml for 20 min), co-stained with mouse anti-STAT6 and rabbit anti-PARP14; PLA spots per cell counted in five view fields
# T1 sequence: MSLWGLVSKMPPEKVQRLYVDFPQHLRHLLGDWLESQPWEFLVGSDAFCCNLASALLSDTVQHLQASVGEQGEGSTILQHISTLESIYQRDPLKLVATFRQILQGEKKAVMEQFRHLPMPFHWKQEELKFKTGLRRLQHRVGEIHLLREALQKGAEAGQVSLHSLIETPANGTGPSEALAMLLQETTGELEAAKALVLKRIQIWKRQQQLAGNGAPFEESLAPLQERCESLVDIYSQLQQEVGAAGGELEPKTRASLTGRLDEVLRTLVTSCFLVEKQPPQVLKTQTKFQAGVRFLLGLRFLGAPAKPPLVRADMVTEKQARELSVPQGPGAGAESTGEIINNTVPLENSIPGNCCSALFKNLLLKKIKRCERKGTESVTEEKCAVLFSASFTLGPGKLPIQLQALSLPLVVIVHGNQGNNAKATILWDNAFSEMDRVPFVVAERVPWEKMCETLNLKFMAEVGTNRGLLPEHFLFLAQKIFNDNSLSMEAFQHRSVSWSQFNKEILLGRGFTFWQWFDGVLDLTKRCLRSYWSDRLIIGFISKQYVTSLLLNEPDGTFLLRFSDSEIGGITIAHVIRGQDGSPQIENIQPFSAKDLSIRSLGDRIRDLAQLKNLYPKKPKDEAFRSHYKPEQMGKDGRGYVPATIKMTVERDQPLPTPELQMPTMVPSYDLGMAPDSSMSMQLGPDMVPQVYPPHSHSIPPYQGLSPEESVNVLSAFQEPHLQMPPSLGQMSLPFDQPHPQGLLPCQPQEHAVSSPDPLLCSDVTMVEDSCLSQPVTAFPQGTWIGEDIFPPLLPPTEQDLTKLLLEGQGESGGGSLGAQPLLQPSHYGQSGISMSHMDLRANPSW
# [2] = target: T2, Flag-tagged wild type STAT6 (human) (UniProt P42226); assay: as above
# T2 sequence: T1 sequence with G419D
substance,measurement,setting,value
Poly(ADP-Ribose) Polymerase Family Member 14 (PARP14) (from UniProt Q460N5 1-1801),binding,[1],binds
same,binding,[2],binds
